Experimental data as given in PMC5410595, “In Vitro and In Silico Antidiabetic and Antimicrobial Evaluation of Constituents from Kickxia ramosissima (Nanorrhinum ramosissimum)” (Frontiers in Pharmacology, 2017).

Experiments:
[1] = system: MRC-5, human fetal lung fibroblasts; experiment: cells; conditions: MRC5, read-out: IC50 MRC-5
Description: (§1) Fractions and isolated compounds were evaluated for antimicrobial activity in an integrated screening panel, also including the human MRC-5 cell line to assess selectivity, as reported before ([Cos et al., 2006]; [Mesia et al., 2008]; [Baldé et al., 2010]; [Amin et al., 2016]).

[2] = system: Candida albicans, B59630 Janssen strain; experiment: microbe, parasite or virus in culture; conditions: read-out: IC50 Candida albicans
Description: as §1

IC50 [2] [µM]	Structure (SMILES)	IC50 [1] [µM]
–	CC/C(=C(\c1ccccc1)c1ccc(OCCN(C)C)cc1)c1ccccc1 [Tamoxifen, reference compound]	10.5
4.7	Clc1ccc(COC(Cn2ccnc2)c2ccc(Cl)cc2Cl)c(Cl)c1 (centres unmarked) [miconazole]	–
